# Data taken from paper PMC2727002.
# Results are given in words; binding and its absence hold for the method and conditions named. Binding seen in cells or lysates may run through a third protein. These calls come from enrichment with a bait or labelling near it, and not all partners need be listed. For part of these data: A no says only that the protein was not detected with the bait. Where a sequence is shown, tags or fusion partners need not be part of it.
# T1: Tap-tagged Caf130 (yeast) (UniProt P53280)
# T1 sequence: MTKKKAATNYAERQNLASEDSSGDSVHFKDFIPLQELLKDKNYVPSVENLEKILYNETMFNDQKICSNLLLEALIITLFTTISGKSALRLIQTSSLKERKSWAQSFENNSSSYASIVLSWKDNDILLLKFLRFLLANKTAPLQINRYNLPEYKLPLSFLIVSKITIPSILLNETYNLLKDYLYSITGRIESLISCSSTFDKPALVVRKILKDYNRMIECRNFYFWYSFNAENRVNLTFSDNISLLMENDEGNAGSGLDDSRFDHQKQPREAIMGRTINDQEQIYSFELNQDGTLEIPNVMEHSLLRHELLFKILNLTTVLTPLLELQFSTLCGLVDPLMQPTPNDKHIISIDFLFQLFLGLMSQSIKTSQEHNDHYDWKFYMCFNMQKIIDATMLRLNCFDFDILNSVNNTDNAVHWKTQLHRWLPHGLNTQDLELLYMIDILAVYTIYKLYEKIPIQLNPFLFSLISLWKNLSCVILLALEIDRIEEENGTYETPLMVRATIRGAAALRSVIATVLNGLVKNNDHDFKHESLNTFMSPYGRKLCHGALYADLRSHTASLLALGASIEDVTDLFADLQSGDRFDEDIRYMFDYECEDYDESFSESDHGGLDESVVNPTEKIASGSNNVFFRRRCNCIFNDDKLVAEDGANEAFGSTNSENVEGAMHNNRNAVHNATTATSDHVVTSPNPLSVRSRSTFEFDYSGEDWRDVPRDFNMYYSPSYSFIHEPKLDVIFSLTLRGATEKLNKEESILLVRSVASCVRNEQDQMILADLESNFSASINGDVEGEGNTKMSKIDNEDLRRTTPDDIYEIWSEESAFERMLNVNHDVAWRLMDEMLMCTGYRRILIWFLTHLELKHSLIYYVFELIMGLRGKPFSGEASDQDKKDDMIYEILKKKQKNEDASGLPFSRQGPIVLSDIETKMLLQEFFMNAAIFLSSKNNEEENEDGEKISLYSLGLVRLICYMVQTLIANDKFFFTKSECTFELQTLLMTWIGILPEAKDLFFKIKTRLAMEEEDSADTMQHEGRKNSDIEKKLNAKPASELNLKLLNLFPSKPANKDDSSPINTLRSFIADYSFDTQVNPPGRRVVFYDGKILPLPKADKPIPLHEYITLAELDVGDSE
# T2: Tap-tagged Rrp41 (yeast) (UniProt P46948)
# T2 sequence: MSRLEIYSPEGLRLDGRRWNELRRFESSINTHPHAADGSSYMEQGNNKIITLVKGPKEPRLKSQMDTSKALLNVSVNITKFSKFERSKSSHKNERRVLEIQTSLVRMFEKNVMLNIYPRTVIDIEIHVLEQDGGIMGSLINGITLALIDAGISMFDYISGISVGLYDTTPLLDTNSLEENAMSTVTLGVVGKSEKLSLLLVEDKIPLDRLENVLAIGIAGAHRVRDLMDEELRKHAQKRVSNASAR
# B1: Not5 (protein, UniProt Q12514 1-560)
# chain: MSQRKLQQDIDKLLKKVKEGIEDFDDIYEKFQSTDPSNSSHREKLESDLKREIKKLQKHRDQIKTWLSKEDVKDKQSVLMTNRRLIENGMERFKSVEKLMKTKQFSKEALTNPDIIKDPKELKKRDQVLFIHDCLDELQKQLEQYEAQENEEQTERHEFHIANLENILKKLQNNEMDPEPVEEFQDDIKYYVENNDDPDFIEYDTIYEDMGCEIQPSSSNNEAPKEGNNQTSLSSIRSSKKQERSPKKKAPQRDVSISDRATTPIAPGVESASQSISSTPTPVSTDTPLHTVKDDSIKFDNSTLGTPTTHVSMKKKESENDSEQQLNFPPDRTDEIRKTIQHDVETNAAFQNPLFNDELKYWLDSKRYLMQPLQEMSPKMVSQLESSLLNCPDSLDADSPCLYTKPLSLPHPTSIFFPNEPIRFVYPYDVPLNLTNNENDTDNKFGKDSKAKSKKDDDIYSRTSLARIFMKFDLDTLFFIFYHYQGSYEQFLAARELFKNRNWLFNKVDRCWYYKEIEKLPPGMGKSEEESWRYFDYKKSWLARRCGNDFVYNEEDFEKL
# Legend:
# [1] = molecular target: T1, Tap-tagged Caf130 (yeast); assay: affinity purification with mass spectrometry; large-scale tandem affinity purification of Tap-tagged proteins from 2 g of total extract of wild-type, not4Δ or caf40Δ cells, 150 mM NaCl; SDS-PAGE, coomassie, bands identified by MALDI-Tof fingerprint
# [2] = molecular target: T2, Tap-tagged Rrp41 (yeast); assay: as above
# [3] = molecular target: T2, Tap-tagged Rrp41 (yeast); assay: affinity purification with mass spectrometry; large-scale tandem affinity purification of Tap-tagged Rrp41 from 2 g of total extract of wild-type cells, 150 mM NaCl; SDS-PAGE, coomassie, MALDI-Tof fingerprint
binder,measurement,setting,value
B1,binding,[1],binds
same,binding,[2],binds
same,binding,[3],no binding (only from wild-type cells)
